Paper PMC4786259 (PLoS ONE, 2016)

Key:
[1] = test system: WT and dopamine transporter knockout (DAT-KO) mice; experiment: Prepulse inhibition in WT and DAT-KO mice; settings: for null activity in DAT-KO mice: compared to vehicle group; for null activity in WT mice: relative to the vehicle control
C57BL/6J mice = experiment: Prepulse inhibition, PCP-disrupted; assay type: in vivo

SMILES	null activity in DAT-KO mice ([1]; 2 mg/kg clozapine)	startle responses ([1]; 2 mg/kg clozapine, regardless of genotype)	null activity in WT mice ([1]; 2 mg/kg clozapine)	null activity in WT mice ([1]; 5 mg/kg nuciferine)	null activity in DAT-KO mice ([1]; all doses of nuciferine)	startle responses (C57BL/6J mice; 5 mg/kg i.p.)	startle responses (C57BL/6J mice; 10 mg/kg i.p.)
CN1CCN(C2=Nc3cc(Cl)ccc3Nc3ccccc32)CC1 [clozapine]	significantly augmented	higher startle responses than all other groups	significantly enhanced	–	–	–	–
COc1cc2c3c(c1OC)-c1ccccc1C[C@H]3N(C)CC2 [nuciferine]	–	–	–	significantly enhanced	significantly augmented	lower than those of the vehicle-treated groups	lower than those of the vehicle-treated groups
